Experimental data taken from patent US10201625B2 (IMPERIAL COLLEGE, priority 2011, dated 2019).

Assay: general procedure: Fmoc solid-phase peptide synthesis; Fmoc-Thr(tBu)-SASRIN resin; HBTU/HOBt/DIPEA
Settings: for step yield: late stage modification step

Substance	step yield	oxidative folding yield (oxidative folding step, one disulfide bridge, sequence written open)
4b FETE-TOGA: FETE-TOGA: 3-[1-(2-fluoroethyl)-1,2,3-triazol-4-yl]propanoyl-[Tyr3]octreotate	56%	–
FET-βAG-[W-c(CTFTYC)K]	38%	–
propynoyl-β-Ala-Gly-D-Phe-Cys-Tyr-D-Trp-Lys-Thr-Cys-Thr-OH	–	48%
